{"source": "PubChem BioAssay AID1224828 (NIAID, 2016)", "assay": "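Regulators linking TLR4 signalling to p65 nuclear translocation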 (primary screen)", "cell system": "mouse RAW264.7 G9 macrophage reporter cells (GFP-p65, Tnf promoter-mCherry)", "knock-down reagent": "siRNA pool against mouse genes, 100 nM", "duration": "2 days siRNA transfection, then 40 min LPS before fixation", "conditions": "LPS (Salmonella minnesota R595) at 10 ng/ml", "detection": "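Microscopy ratio of nuclear to perinuclear-ring GFP-p65 signal, scaled to the plate median; gene score is the average of two replicate robust z-scores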", "direction": "p65 translocation robust z-score: higher = more nuclear NF-kappaB p65 after LPS than the plate median; nuclear/cytoplasmic p65 ratio: higher = more nuclear NF-kappaB p65", "hit rule": "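Called active when z exceeds 3.3 or falls under -1.56 (median of Tlr4 controls), giving activity score of at least 50; no calls for control wells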", "meaning of the calls": "active = hit (p65 shift raised or lowered); inactive = no clear change", "note": "This is one part, drawn at random, of about 17,000 reagents. 762 of all reagents (4.5%) count as active. 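Active calls include both raised and lowered p65 entry, mostly lowered; wells with fewer than 50 cells lack a z-score.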 The raw values are shown without normalisation. Unmarked entries are inactive. Reagents against one gene are numbered here. Some reagents were tested in more than one well and are listed for each. Reagent sequences are not shown."}
{"gene": "Cdk6", "reagent no.": 1, "p65 translocation robust z-score": -0.26, "nuclear/cytoplasmic p65 ratio, rep 1": 1.71, "nuclear/cytoplasmic p65 ratio, rep 2": 1.3, "low cell count flag": "enough cells to score"}
{"gene": "Klk15", "reagent no.": 1, "p65 translocation robust z-score": -0.51, "nuclear/cytoplasmic p65 ratio, rep 1": 1.06, "nuclear/cytoplasmic p65 ratio, rep 2": 1.37, "low cell count flag": "enough cells to score"}
{"gene": "Slc2a6", "reagent no.": 1, "nuclear/cytoplasmic p65 ratio, rep 1": 1.36, "nuclear/cytoplasmic p65 ratio, rep 2": 1.07, "low cell count flag": "fewer than 50 cells per well; well left out of scoring"}
{"gene": "Slc25a20", "reagent no.": 1, "p65 translocation robust z-score": 0.14, "nuclear/cytoplasmic p65 ratio, rep 1": 1.53, "nuclear/cytoplasmic p65 ratio, rep 2": 1.84, "low cell count flag": "enough cells to score"}
{"gene": "Abcf2", "reagent no.": 1, "p65 translocation robust z-score": 1.62, "nuclear/cytoplasmic p65 ratio, rep 1": 1.85, "nuclear/cytoplasmic p65 ratio, rep 2": 1.93, "low cell count flag": "enough cells to score"}
{"gene": "Dnajb11", "reagent no.": 1, "p65 translocation robust z-score": 1.9, "nuclear/cytoplasmic p65 ratio, rep 1": 1.73, "nuclear/cytoplasmic p65 ratio, rep 2": 1.6, "low cell count flag": "enough cells to score"}
{"gene": "Tmem169", "reagent no.": 1, "p65 translocation robust z-score": 2.3, "nuclear/cytoplasmic p65 ratio, rep 1": 1.66, "nuclear/cytoplasmic p65 ratio, rep 2": 1.86, "low cell count flag": "enough cells to score"}
{"gene": "Ilkap", "reagent no.": 1, "nuclear/cytoplasmic p65 ratio, rep 1": 2.26, "nuclear/cytoplasmic p65 ratio, rep 2": 1.48, "low cell count flag": "fewer than 50 cells per well; well left out of scoring"}
{"gene": "Ilkap", "reagent no.": 1, "p65 translocation robust z-score": -1.02, "nuclear/cytoplasmic p65 ratio, rep 1": 1.26, "nuclear/cytoplasmic p65 ratio, rep 2": 1.44, "low cell count flag": "enough cells to score"}
{"gene": "Vat1", "reagent no.": 1, "nuclear/cytoplasmic p65 ratio, rep 1": 1.14, "nuclear/cytoplasmic p65 ratio, rep 2": 1.35, "low cell count flag": "fewer than 50 cells per well; well left out of scoring"}
{"gene": "Lcn4", "reagent no.": 1, "p65 translocation robust z-score": 1.69, "nuclear/cytoplasmic p65 ratio, rep 1": 1.82, "nuclear/cytoplasmic p65 ratio, rep 2": 1.64, "low cell count flag": "enough cells to score"}
{"gene": "Defa3", "reagent no.": 1, "p65 translocation robust z-score": -0.27, "nuclear/cytoplasmic p65 ratio, rep 1": 1.27, "nuclear/cytoplasmic p65 ratio, rep 2": 1.33, "low cell count flag": "enough cells to score"}
{"gene": "Mtmr11", "reagent no.": 1, "nuclear/cytoplasmic p65 ratio, rep 1": 1.61, "nuclear/cytoplasmic p65 ratio, rep 2": 1.4, "low cell count flag": "fewer than 50 cells per well; well left out of scoring"}

3 entries from above in another layout:
| gene | reagent no. | p65 translocation robust z-score | nuclear/cytoplasmic p65 ratio, rep 1 | nuclear/cytoplasmic p65 ratio, rep 2 | low cell count flag |
| --- | --- | --- | --- | --- | --- |
| Klk15 | 1 | -0.51 | 1.06 | 1.37 | enough cells to score |
| Slc2a6 | 1 | – | 1.36 | 1.07 | fewer than 50 cells per well; well left out of scoring |
| Slc25a20 | 1 | 0.14 | 1.53 | 1.84 | enough cells to score |

The listing continues:
{"gene": "Dnaja1", "reagent no.": 1, "p65 translocation robust z-score": 1.5, "nuclear/cytoplasmic p65 ratio, rep 1": 1.72, "nuclear/cytoplasmic p65 ratio, rep 2": 1.5, "low cell count flag": "enough cells to score"}
{"gene": "Prdm16", "reagent no.": 1, "p65 translocation robust z-score": 1.11, "nuclear/cytoplasmic p65 ratio, rep 1": 1.81, "nuclear/cytoplasmic p65 ratio, rep 2": 1.41, "low cell count flag": "enough cells to score"}
{"gene": "Reps2", "reagent no.": 1, "nuclear/cytoplasmic p65 ratio, rep 1": 1.48, "nuclear/cytoplasmic p65 ratio, rep 2": 1.4, "low cell count flag": "fewer than 50 cells per well; well left out of scoring"}
{"gene": "Pde7b", "reagent no.": 1, "p65 translocation robust z-score": -0.5, "nuclear/cytoplasmic p65 ratio, rep 1": 1.39, "nuclear/cytoplasmic p65 ratio, rep 2": 1.34, "low cell count flag": "enough cells to score"}
{"gene": "Or5b112", "reagent no.": 1, "p65 translocation robust z-score": 0.99, "nuclear/cytoplasmic p65 ratio, rep 1": 1.85, "nuclear/cytoplasmic p65 ratio, rep 2": 1.47, "low cell count flag": "enough cells to score"}
{"gene": "Ifna1", "reagent no.": 1, "p65 translocation robust z-score": -0.69, "nuclear/cytoplasmic p65 ratio, rep 1": 1.38, "nuclear/cytoplasmic p65 ratio, rep 2": 1.3, "low cell count flag": "enough cells to score"}
{"gene": "Slc6a15", "reagent no.": 1, "p65 translocation robust z-score": 0.88, "nuclear/cytoplasmic p65 ratio, rep 1": 1.62, "nuclear/cytoplasmic p65 ratio, rep 2": 1.58, "low cell count flag": "enough cells to score"}
{"gene": "Slc6a15", "reagent no.": 2, "p65 translocation robust z-score": -0.69, "nuclear/cytoplasmic p65 ratio, rep 1": 1.37, "nuclear/cytoplasmic p65 ratio, rep 2": 1.18, "low cell count flag": "enough cells to score"}
